Values from PubChem BioAssay AID504744 (Drosophila RNAi Screening Center, 2011)
Screen: 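Identify dsRNAs that increase or decrease phospho-dAkt after insulin treatment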 (primary screen). Cells: Drosophila Kc167 cells. Reagent: long dsRNA against Drosophila genes, 250 ng dsRNA per well of a 384-well plate. Duration: 3 days of knock-down, then overnight serum-free starvation before stimulation. Conditions: bovine insulin at 387 nM for 10 minutes after 12 h without serum. Measured: 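Per-well phospho-dAkt level from an in-cell fluorescent antibody stain, divided by a DNA-dye signal; log2 residuals turned into z-scores that take cell number into account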. Hit rule: 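Hit in the insulin screen when the two-replicate mean z-score is more extreme than plus or minus 2.5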.
In all, the deposit lists about 23,000 reagents; below is a random part of those with a known target gene and a result. Of all reagents, 98 (0.43%) got an active call. 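Only hit calls are given; the phospho-dAkt signals, z-scores and hit direction were not deposited.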 Reagents against one gene are numbered here. A plus sign joins genes that one reagent is predicted to hit.

Target gene	reagent	activity call
CrebA (Cyclic-AMP response element binding protein A)	1	inactive
CCHa2-R (CCHamide-2 receptor)	1	inactive
CCHa2-R (CCHamide-2 receptor)	2	inactive
CCHa2-R (CCHamide-2 receptor)	3	inactive
CG6870	1	inactive
tapas	1	inactive
Mctp (Multiple C2 domain and transmembrane region protein)	1	inactive
Mctp (Multiple C2 domain and transmembrane region protein)	2	inactive
CG42676	1	inactive
CG42676	2	inactive
CG9522	1	inactive
CG3638	1	inactive
Hgsnat (Heparan-alpha-glucosaminide N-acetyltransferase)	1	inactive
ppk19 (pickpocket 19)	1	inactive
Mov10 (Mov10 RISC complex RNA helicase)	1	inactive
CG42402	1	inactive
CG4641 (retired record)	1	inactive
Cap-D3 (Chromosome associated protein D3)	1	inactive
MtnA (Metallothionein A)	1	inactive
Hpd (4-hydroxyphenylpyruvate dioxygenase)	1	inactive
CG1951	1	inactive
Src64B (Src oncogene at 64B)	1	inactive
Lrr47 (Leucine-rich repeat 47)	1	inactive
CG1317	1	inactive
cher (cheerio)	1	inactive
CG8745	1	inactive
CG8745	2	inactive
CG8745	3	inactive
Chpf (Chondroitin polymerizing factor)	1	inactive
Chpf (Chondroitin polymerizing factor)	2	inactive
CG33770	1	inactive
ND-51 (NADH dehydrogenase (ubiquinone) 51 kDa subunit)	1	inactive
Nnf1a	1	inactive
DNaseII (Deoxyribonuclease II)	1	inactive
CG31019	1	inactive
Cnep1r1 (CTD nuclear envelope phosphatase 1 regulatory subunit 1)	1	inactive
CG8814	1	inactive
CG31778	1	inactive
Vsx1 (Visual system homeobox 1)	1	inactive
Vsx1 (Visual system homeobox 1)	2	inactive
CG13887	1	inactive
CG11722	1	active
CG11373	1	inactive
CG1428	1	inactive
CG33177	1	inactive
Es2	1	inactive
sosie	1	inactive
sosie	2	inactive
stai (stathmin)	1	inactive
Top1 (Topoisomerase 1)	1	inactive
CG5250	1	inactive
kl-3 (retired record)	1	inactive
kl-3 (retired record)	2	inactive
kl-3 (retired record)	3	inactive
Mabi (Mabiki)	1	inactive
Nckx30C	1	inactive
Nckx30C	2	inactive
Nckx30C	3	inactive
Nckx30C	4	inactive
Muc91C (Mucin 91C)	1	inactive
Muc91C (Mucin 91C)	2	inactive
intr (intrepid)	1	inactive
CG4332	1	inactive
CG7239	1	inactive
Ir7f (Ionotropic receptor 7f)	1	inactive
CG9284 (retired record)	1	inactive
CG9284 (retired record)	2	inactive
wb (wing blister)	1	inactive
wb (wing blister)	2	inactive
NimB2 (Nimrod B2)	1	inactive
Or42b (Odorant receptor 42b)	1	inactive
Gcna (Germ cell nuclear acidic peptidase)	1	inactive
CG4438	1	inactive
Hsp60B (Heat shock protein 60B)	1	inactive
CG2145	1	inactive
shrb (shrub)	1	inactive
rswl (roswell)	1	inactive
tobi (target of brain insulin)	1	inactive
dgt1 (dim gamma-tubulin 1)	1	inactive
CG15930	1	inactive
mv (mauve)	1	inactive
mv (mauve)	2	inactive
SelR (Selenoprotein R)	1	inactive
ARY (retired record)	1	inactive
botv	1	inactive
Spn38F (Serpin 38F)	1	inactive
CG42521	1	inactive
CG4041	1	inactive
CG11964	1	inactive
Nipsnap	1	inactive
CG30172	1	inactive
CG31371	1	inactive
CG15111	1	inactive
CG12096	1	inactive
CG13693	1	inactive
CG32264	1	inactive
CG32264	2	inactive
CG32264	3	inactive
CG32264	4	inactive
CG32264	5	inactive
Tengl2 (Testis EndoG-Like 2)	1	inactive
Ugt302K1 (UDP-glycosyltransferase family 302 member K1)	1	inactive
DZIP1	1	inactive
CG14312	1	inactive
CG15370	1	inactive
blw (bellwether)	1	inactive
CG16813	1	inactive
Cwc25	1	inactive
CG4022	1	inactive
CG11658	1	inactive
CG4627	1	inactive
Sf3b2 (Splicing factor 3b subunit 2)	1	inactive
stas (Stasimon)	1	inactive
CG5886	1	inactive
crp (cropped)	1	inactive
Rrp45	1	inactive
Taf13 (TBP-associated factor 13)	1	inactive
Naa60 (N(alpha)-acetyltransferase 60)	1	inactive
l(2)k09022 (lethal (2) k09022)	1	inactive
CG32192	1	inactive
wls (wntless)	1	inactive
CG15533	1	inactive
CG18666	1	inactive
CR32011 + CR32010 + PlexB + 1 more	1	inactive
CG3630	1	inactive
CG1513	1	inactive
CG1513	2	inactive
CG1513	3	inactive
VhaAC39-2 (Vacuolar H[+] ATPase AC39 subunit 2)	1	inactive
Sbp2 (SECIS-binding protein 2)	1	inactive
fzr (fizzy-related)	1	inactive
dUTPase (Deoxyuridine triphosphatase)	1	inactive
CG12655	1	inactive
Ipk2 (Inositol phosphate kinase 2)	1	inactive
Ptp99A (Protein tyrosine phosphatase 99A)	1	inactive
Ptp99A (Protein tyrosine phosphatase 99A)	2	inactive
Ptp99A (Protein tyrosine phosphatase 99A)	3	inactive
Ptp99A (Protein tyrosine phosphatase 99A)	4	inactive
Ptp99A (Protein tyrosine phosphatase 99A)	5	inactive
Ptp99A (Protein tyrosine phosphatase 99A)	6	inactive
Ptp99A (Protein tyrosine phosphatase 99A)	7	inactive
CG9970	1	inactive
CG3071	1	inactive
Nprl2 (Nitrogen permease regulator-like 2)	1	inactive
Psa (Puromycin sensitive aminopeptidase)	1	inactive
dyw (daywake)	1	inactive
CG17272	1	inactive
CG15514	1	inactive
CG42749	1	inactive
CG42749	2	inactive
NimB4 (Nimrod B4)	1	inactive
CG42362 + CG42363	1	inactive
Cyp9b2 (Cytochrome P450 9b2)	1	inactive
cnn (centrosomin)	1	inactive
cnn (centrosomin)	2	inactive
Ets98B (Ets at 98B)	1	inactive
CG12024	1	inactive

Reformatted: 12 of the entries above
{"Target gene":"sosie","reagent":2,"activity call":"inactive"}
{"Target gene":"stai (stathmin)","reagent":1,"activity call":"inactive"}
{"Target gene":"Top1 (Topoisomerase 1)","reagent":1,"activity call":"inactive"}
{"Target gene":"CG5250","reagent":1,"activity call":"inactive"}
{"Target gene":"kl-3 (retired record)","reagent":1,"activity call":"inactive"}
{"Target gene":"kl-3 (retired record)","reagent":2,"activity call":"inactive"}
{"Target gene":"kl-3 (retired record)","reagent":3,"activity call":"inactive"}
{"Target gene":"Mabi (Mabiki)","reagent":1,"activity call":"inactive"}
{"Target gene":"Nckx30C","reagent":1,"activity call":"inactive"}
{"Target gene":"Nckx30C","reagent":2,"activity call":"inactive"}
{"Target gene":"Nckx30C","reagent":3,"activity call":"inactive"}
{"Target gene":"Nckx30C","reagent":4,"activity call":"inactive"}
